Data on 1 sequence can be found in publication PMC6123443, “Selective Pressure for Biofilm Formation in Bacillus subtilis: Differential Effect of Mutations in the Master Regulator SinR on Bistability” (mBio, 2018).

Common to all, as to assay: fluorescence polarization, SinI displacement
For orientation: Polarisation of emitted light reports the rotation of a fluorescent probe.

Series [1] concerns the target SinR W104L (Bacillus subtilis) (UniProt P06533). The following applies: 5 uM SinR + 10-fold excess SinI (~60% of bound DNA released); 10 mM Tris-HCl pH 8.0, 100 mM NaCl, 1 mM EDTA; 10 nM labeled duplex, SinR diluted from 20 uM; temperature not stated; recombinant protein; label: 5'-fluorescein (FAM) on strand 1.
In series [2] the target is SinR S43A (Bacillus subtilis) (UniProt P06533). The conditions noted are these: 5 uM SinR + equimolar or more SinI (displacement almost complete); 10 mM Tris-HCl pH 8.0, 100 mM NaCl, 1 mM EDTA; 10 nM labeled duplex, SinR diluted from 20 uM; temperature not stated; recombinant protein; label: 5'-fluorescein (FAM) on strand 1.
Series [3] concerns the target SinR wild type (Bacillus subtilis) (UniProt P06533). The conditions noted are these: 5 uM SinR + equimolar SinI (~85% of bound DNA released); 10 mM Tris-HCl pH 8.0, 100 mM NaCl, 1 mM EDTA; 10 nM labeled duplex, SinR diluted from 20 uM; temperature not stated; recombinant protein; label: 5'-fluorescein (FAM) on strand 1.
Series [4] addresses SinR A85T (Bacillus subtilis) (UniProt P06533). The following applies: 5 uM SinR + SinI (displacement similar to wild type); 10 mM Tris-HCl pH 8.0, 100 mM NaCl, 1 mM EDTA; 10 nM labeled duplex, SinR diluted from 20 uM; temperature not stated; recombinant protein; label: 5'-fluorescein (FAM) on strand 1.
The target in series [5] is SinR W104R (Bacillus subtilis) (UniProt P06533). The conditions noted are these: 5 uM SinR + 10-fold excess SinI (~60% of bound DNA released); 10 mM Tris-HCl pH 8.0, 100 mM NaCl, 1 mM EDTA; 10 nM labeled duplex, SinR diluted from 20 uM; temperature not stated; recombinant protein; label: 5'-fluorescein (FAM) on strand 1.

For at least one entry, the source does not settle the construct or the ends of the probe. For some assays here: The comparison behind a weaker result is the experiment's own reference, which may not be listed here.

On to ATTGTTCTCTAAAGAGAACTT (double strand), for which the binding signal was 40 % DNA bound in series [1], 15 % DNA bound in series [3] and 40 % DNA bound in series [5]. Also, the binding result in series [2] and in series [4] was “binds more weakly” throughout.
